This is one part of the list.

The chains behind the UniProt entries cited, without tags or fusion partners.
UniProt Q0JBA9, entry or part of it: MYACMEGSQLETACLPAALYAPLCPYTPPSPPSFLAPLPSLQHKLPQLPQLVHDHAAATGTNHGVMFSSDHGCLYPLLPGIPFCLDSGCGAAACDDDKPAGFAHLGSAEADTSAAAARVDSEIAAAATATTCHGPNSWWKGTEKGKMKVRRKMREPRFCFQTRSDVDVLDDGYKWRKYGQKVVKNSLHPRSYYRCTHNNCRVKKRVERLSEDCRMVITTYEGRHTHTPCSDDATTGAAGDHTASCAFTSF

Drawing on paper PMC7819943, “Rice protein-binding microarrays: a tool to detect cis-acting elements near promoter regions in rice”, this text covers binding signal for 54 sequences.

For this experiment, the target named is OsWRKY34 (Oryza sativa, UniProt Q0JBA9 1-250). The experiment is described as follows: protein-binding microarray (RPBM); PBS, 2% BSA, 51.3 ng/ul salmon testes DNA, 50 uM zinc acetate, 200 nM TF, 25 C, 1 h; high values mean tight binding. The settings on record: protein: recombinant; tags: N-terminal polyhistidine and DsRed monomer fusion (pET32a); label: CyDye5-dUTP incorporated in the synthesized complementary strand; 3' TTTTT single-stranded linker to array surface; dsDNA, one strand shown. In outline: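 Per-feature fluorescence intensity (arbitrary units), read on an Axon 4000B scanner, is the binding signal. Transcription factors carrying an N-terminal polyhistidine tag and DsRed fusion were expressed in E. coli BL21-CodonPlus and purified on Ni–NTA. A custom Agilent array, made double-stranded by primer extension with Cy5-dUTP and blocked with 2% BSA, was incubated with 200 nM protein in PBS, 2% BSA, salmon testes DNA and 50 µM zinc acetate at 25 °C for 1 h and then washed.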
Take “TATTTTAAACTCTCGAGGGGACATTCCCTTGTTGTTTCCTCGGAGTCACCTAGTGCAG”: the binding signal is 8910 fluorescence intensity (a.u.).
In the case of “GCGGAGGAGGGCGGGAGGAAGCGGGTGGCGGCGGCGGAGTCGGAGTCACCTAGTGCAG” it was 10900 fluorescence intensity (a.u.).
With “TAAACCTCCTCTCGTTCTCACCTTTTTGTGCTCCATCTCTCGGAGTCACCTAGTGCAG”, the binding signal is 9440 fluorescence intensity (a.u.).
For the sequence “GTCCCGTGGCCGGTGCGCCCTTCTTCCCAATTGCGACACCCGGAGTCACCTAGTGCAG”, the binding signal was 8250 fluorescence intensity (a.u.).
As for “CATGGGAATTGTGCCGGCTGTTTTTTTTCGTTTTCATCAGCGGAGTCACCTAGTGCAG”, the figure is 10200 fluorescence intensity (a.u.); as for “CAACAAGCGTAACATTCTTTTTTCTTCTCTGAAAGACTGACGGAGTCACCTAGTGCAG”, 9020 fluorescence intensity (a.u.).
As for “CAACGCATCGTCTTCCTTCTTCGTCGTCGATAGATCGGCTCGGAGTCACCTAGTGCAG”, the figure is 8810 fluorescence intensity (a.u.); as for “TTTGACTTTAGTCAAAGTCAAACTACTCTAACTTTGACTACGGAGTCACCTAGTGCAG”, 9840 fluorescence intensity (a.u.); as for “GCCACCCGCGACCTCGAGCTTCCCTTCTCTCTCTCTCTCTCGGAGTCACCTAGTGCAG”, 8160 fluorescence intensity (a.u.).
As for “CGCCCCTGACTGTACCAACTTATTTTCATTGACTATGATACGGAGTCACCTAGTGCAG”, the figure is 8710 fluorescence intensity (a.u.); as for “CTGGTGCTTTCGTCCTACGTACCCTAGCTAGCGGTCCGATCGGAGTCACCTAGTGCAG”, 10400 fluorescence intensity (a.u.); as for “TGTTACTTCCAGACATGGTTTAACGCTGTAATTCCTATACCGGAGTCACCTAGTGCAG”, 8290 fluorescence intensity (a.u.).
As to “TCCCCGCCTTCGTCTCGCCGTCCGTCGCCCTGTTCTGCGCCGGAGTCACCTAGTGCAG”, the binding signal is 8150 fluorescence intensity (a.u.).
Regarding “TGCACTTTGGCATTTTGGGGTATGGAAGTTATATACTCTACGGAGTCACCTAGTGCAG”, the binding signal was 9720 fluorescence intensity (a.u.).
On to “TCTGCATGATTCCTTGGTTTCTTTTTTTACACATTTACTTCGGAGTCACCTAGTGCAG”, for which the binding signal is 10500 fluorescence intensity (a.u.).
On to “ATGTCTGGTTTGAATGCATTGGGAGTAAGATGTCCTGGTTCGGAGTCACCTAGTGCAG”, for which the binding signal was 8810 fluorescence intensity (a.u.).
“ACACAAATACCAATATATTTAATACTCTTACATCCTTCTTCGGAGTCACCTAGTGCAG”: the binding signal is 8680 fluorescence intensity (a.u.).
As for “GGTATTCTGCATTCTGCACTAACATGGTTGGCCGTCGTCACGGAGTCACCTAGTGCAG”, the figure is 11000 fluorescence intensity (a.u.); as for “AAGCTCTACCACGTGCATGCTGCTTCATCACTTCATCTCCCGGAGTCACCTAGTGCAG”, 8750 fluorescence intensity (a.u.); as for “CTTCGTTTCTAGAGTAACACGCGGCAACCGCGGAGTTGACCGGAGTCACCTAGTGCAG”, 8170 fluorescence intensity (a.u.).
As for “TTTTTTTTTCATGTTTGTTTGTGTGTGTGTGTGTGCAGGACGGAGTCACCTAGTGCAG”, the figure is 8780 fluorescence intensity (a.u.); as for “TGGGTATAGGATATTATGGTTGTTGTTGAATCCTTCGGAACGGAGTCACCTAGTGCAG”, 9240 fluorescence intensity (a.u.).
In the case of “GGCTGGGTGTTACAACTTTGTCCAAAACATCAATAATTATCGGAGTCACCTAGTGCAG” it was 8610 fluorescence intensity (a.u.); in that of “ACCATCTCACCTGTCTCATCCAATTCTCTTTTTCCTGTATCGGAGTCACCTAGTGCAG”, 12200 fluorescence intensity (a.u.).
Turning to “GGATCCCATTAACACGTGTCACCGTGGCATGCCACGTCATCGGAGTCACCTAGTGCAG”, the binding signal is 8390 fluorescence intensity (a.u.).
For “CTCCCTTCTTTTATGGCCAATGTGCGGTTATTTTCGGTTCCGGAGTCACCTAGTGCAG”, the binding signal was 8390 fluorescence intensity (a.u.).
Consider “TCCACAAGTGTCCATGTCCGCCGTGTTATCTACTTCCTTCCGGAGTCACCTAGTGCAG”, for which the binding signal is 10900 fluorescence intensity (a.u.).
In the case of “GTTTTCCGTCTCCGGCCGCCAGGTTTGCTGCCGCGGCCGTCGGAGTCACCTAGTGCAG” it was 9470 fluorescence intensity (a.u.).
As for “TTAACGCCCAATTACGGATAGTGTGGATCAAACTTGAGTTCGGAGTCACCTAGTGCAG”, the binding signal is 8230 fluorescence intensity (a.u.).
Turning to “CACCTGTCCCGCTGTCCGCCGCGCCGCCCGGTTCACACGGCGGAGTCACCTAGTGCAG”, the binding signal is 8300 fluorescence intensity (a.u.).
For the sequence “TTGCTCACCAGAGCTACTACTACCGGTCTGTCACGCTCACCGGAGTCACCTAGTGCAG”, the binding signal is 9180 fluorescence intensity (a.u.).
Regarding “GGTGGAGGTGGTGGTGAGATGGAGAGAGAGAAGGTGACGTCGGAGTCACCTAGTGCAG”, the binding signal is 12900 fluorescence intensity (a.u.).
“GTTAGTGTGTGGTTTGTTGCGTGCAGTCAGGTGCACTCGGCGGAGTCACCTAGTGCAG”: the binding signal was 11000 fluorescence intensity (a.u.).
Turning to “TCCGACATGCTGCCCTCGATCGAGCTCATCCATCGGCCCTCGGAGTCACCTAGTGCAG”, the binding signal is 9550 fluorescence intensity (a.u.).
In the case of “GGCTTTTGGTTTCTTGGTGGTTGTGGATTTTTTTTTTTTGCGGAGTCACCTAGTGCAG” it was 12300 fluorescence intensity (a.u.).
Regarding “ACACTTCCATACACCGAGTCCACCAACGCCCCTCTCAGGCCGGAGTCACCTAGTGCAG”, the binding signal is 9410 fluorescence intensity (a.u.).
“ACGGTCACCTCCCGTCCCCACGTTTTTCTTTACACCCACGCGGAGTCACCTAGTGCAG”: the binding signal was 11200 fluorescence intensity (a.u.).
For “ACGTAAAACACTTAATCTTCATTTTATCTTTATCTTCAGGCGGAGTCACCTAGTGCAG”, the binding signal is 8490 fluorescence intensity (a.u.).
In the case of “TCTATTGGCCGTTTCACTTTATCGCCACTTTTTTCAAATTCGGAGTCACCTAGTGCAG” it was 9980 fluorescence intensity (a.u.).
Take “CTAGGAGGAGGATTAGTTCTTGCGCATCGCTTCTGAGCTCCGGAGTCACCTAGTGCAG”: the binding signal is 8200 fluorescence intensity (a.u.).
With “CCCACCAGCTAAATAAGACAACTCAACCCTACACGCGCGTCGGAGTCACCTAGTGCAG”, the binding signal is 9170 fluorescence intensity (a.u.).
For the sequence “CCGGGGTTGCTGGCACACGCGGTGCGGCGCCGCCGTTGACCGGAGTCACCTAGTGCAG”, the binding signal was 15700 fluorescence intensity (a.u.).
Regarding “ACGAGACGTCCACCACCATGGATTTCACCTGTTTCTGCGACGGAGTCACCTAGTGCAG”, the binding signal is 8170 fluorescence intensity (a.u.).
In the case of “CGGTTTGTGTGAGTTTAGGGGTACATATTTCTGGTTTTATCGGAGTCACCTAGTGCAG”, the binding signal was 9530 fluorescence intensity (a.u.).
For “TCTTGCAGTATTTGCATGACTTATACCTGCCTCTGGACTTCGGAGTCACCTAGTGCAG”, the binding signal was 8110 fluorescence intensity (a.u.).
On to “GCCCGCGCTTCATCCGGTAACCACCGTCACCAACCGTGCGCGGAGTCACCTAGTGCAG”, for which the binding signal is 8110 fluorescence intensity (a.u.).
Turning to “AGAGAATTATGGAGAGGGGAGGGGAGGGGCAGCAAAAGAGCGGAGTCACCTAGTGCAG”, the binding signal was 9750 fluorescence intensity (a.u.).
As for “GCACAAATGGGAAGTCTTTGCTTGTACTTTCTTCCATCTACGGAGTCACCTAGTGCAG”, the binding signal was 10400 fluorescence intensity (a.u.).
“ATCCCTGTATTACTCCATTATCCATTCGATTCCCACGAGGCGGAGTCACCTAGTGCAG”: the binding signal was 11500 fluorescence intensity (a.u.).
As to “GAAAAGCACGCTATTACCAGTACCACCACTGTTCGTTTCGCGGAGTCACCTAGTGCAG”, the binding signal is 8260 fluorescence intensity (a.u.).
As for “AAACACAGAATCATCATCAACCGCCACTGCTACTAATCCTCGGAGTCACCTAGTGCAG”, the figure is 8390 fluorescence intensity (a.u.).
Turning to “AAACTTGCTCTTCCTACCTTGCAGTAATCTCAGCGCTGCTCGGAGTCACCTAGTGCAG”, the binding signal was 9510 fluorescence intensity (a.u.).
On to “GTAGCTGTCGAACGTGTCGTCCTAGACCTTACTGCCTCCACGGAGTCACCTAGTGCAG”, for which the binding signal was 12500 fluorescence intensity (a.u.).
On to “CTTCAACTCAAATGTCATCCGATGTCTGTTTCGTACCCGGCGGAGTCACCTAGTGCAG”, for which the binding signal is 8830 fluorescence intensity (a.u.).
